Results are given in words; binding and its absence hold for the method and conditions named. Binding seen in cells or lysates may run through a third protein. A result given as binding can be weak or reduced; the word gives no strength. For some assays here: Sequences can lack the tags named with a protein.

Amino acid sequences for entries named in this document (tags omitted). A change or cut given only in a name is not applied to a line headed by its entry.
UniProt Q9DCB8: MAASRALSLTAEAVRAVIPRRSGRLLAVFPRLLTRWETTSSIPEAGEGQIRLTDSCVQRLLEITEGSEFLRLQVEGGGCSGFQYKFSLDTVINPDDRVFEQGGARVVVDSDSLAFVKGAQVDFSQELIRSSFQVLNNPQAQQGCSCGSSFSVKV
UniProt Q8CAK1: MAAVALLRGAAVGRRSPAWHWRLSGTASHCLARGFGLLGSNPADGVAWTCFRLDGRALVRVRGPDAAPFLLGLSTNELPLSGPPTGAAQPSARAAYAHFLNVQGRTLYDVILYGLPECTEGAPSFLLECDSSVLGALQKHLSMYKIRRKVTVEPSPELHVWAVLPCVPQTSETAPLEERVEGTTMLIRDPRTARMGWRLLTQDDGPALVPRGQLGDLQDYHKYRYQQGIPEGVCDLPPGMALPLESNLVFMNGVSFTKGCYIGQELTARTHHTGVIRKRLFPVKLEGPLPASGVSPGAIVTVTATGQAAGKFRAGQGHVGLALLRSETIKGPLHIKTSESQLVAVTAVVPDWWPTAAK

Test [1] addresses ISCA2-Flag (mouse ISCA2 with a C-terminal Flag epitope) (mouse) (UniProt Q9DCB8). Put plainly: co-IP; Flag M2 resin IP from mitochondria-enriched extracts of N2a cells transfected with ISCA1-Flag, ISCA2-Flag or IBA57-Flag, versus control IP; western blot of the eluates.
Test [2] deals with T1, ISCA1-Flag (mouse ISCA1 with a C-terminal Flag epitope) (mouse) (UniProt Q9D924).
T1 sequence: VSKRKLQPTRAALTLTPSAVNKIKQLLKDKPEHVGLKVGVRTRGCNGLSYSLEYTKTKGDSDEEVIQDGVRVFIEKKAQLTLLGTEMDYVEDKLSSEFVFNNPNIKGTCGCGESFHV
The test is described as above.

Consider “IBA57 (endogenous, N2a) (from UniProt Q8CAK1)”, for which the binding result in test [1] is listed as “binds”. On to “ISCA2 (endogenous, N2a) (from UniProt Q9DCB8)”, for which the binding result in test [2] is recorded as “binds”.

The record behind these values is PMC5437272.
